The values that follow come from the supplement of paper PMC12819154, “High-throughput peptide-centric local stability assay extends protein–ligand identification to membrane proteins, tissues and bacteria” (Nature Structural & Molecular Biology, 2025).

Chains of the proteins cited; added tags and fusions are not shown. Lines headed by an entry give the natural chain unless they say otherwise; changes in a name come on top.
UniProt Q61165, whole entry: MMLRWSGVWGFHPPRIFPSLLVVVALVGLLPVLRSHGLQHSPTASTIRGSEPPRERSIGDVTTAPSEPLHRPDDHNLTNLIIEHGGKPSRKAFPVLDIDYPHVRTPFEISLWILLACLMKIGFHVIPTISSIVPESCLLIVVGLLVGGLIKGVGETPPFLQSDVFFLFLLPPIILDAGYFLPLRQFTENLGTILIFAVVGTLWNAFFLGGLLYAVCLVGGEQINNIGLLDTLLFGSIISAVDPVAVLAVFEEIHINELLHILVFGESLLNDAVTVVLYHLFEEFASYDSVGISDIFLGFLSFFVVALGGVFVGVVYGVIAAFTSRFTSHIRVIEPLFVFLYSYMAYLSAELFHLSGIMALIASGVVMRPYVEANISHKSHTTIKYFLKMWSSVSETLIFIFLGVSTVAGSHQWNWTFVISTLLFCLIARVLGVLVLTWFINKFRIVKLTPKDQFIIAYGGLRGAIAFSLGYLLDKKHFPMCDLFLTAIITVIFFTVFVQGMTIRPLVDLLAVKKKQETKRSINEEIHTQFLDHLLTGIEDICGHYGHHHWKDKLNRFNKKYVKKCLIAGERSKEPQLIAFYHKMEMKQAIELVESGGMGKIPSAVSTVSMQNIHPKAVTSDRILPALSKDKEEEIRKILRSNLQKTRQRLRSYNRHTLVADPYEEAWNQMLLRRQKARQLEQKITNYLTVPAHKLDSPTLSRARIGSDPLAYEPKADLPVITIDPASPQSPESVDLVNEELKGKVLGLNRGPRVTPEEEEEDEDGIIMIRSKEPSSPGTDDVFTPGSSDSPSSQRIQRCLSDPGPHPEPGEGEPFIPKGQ
UniProt Q5RJ54: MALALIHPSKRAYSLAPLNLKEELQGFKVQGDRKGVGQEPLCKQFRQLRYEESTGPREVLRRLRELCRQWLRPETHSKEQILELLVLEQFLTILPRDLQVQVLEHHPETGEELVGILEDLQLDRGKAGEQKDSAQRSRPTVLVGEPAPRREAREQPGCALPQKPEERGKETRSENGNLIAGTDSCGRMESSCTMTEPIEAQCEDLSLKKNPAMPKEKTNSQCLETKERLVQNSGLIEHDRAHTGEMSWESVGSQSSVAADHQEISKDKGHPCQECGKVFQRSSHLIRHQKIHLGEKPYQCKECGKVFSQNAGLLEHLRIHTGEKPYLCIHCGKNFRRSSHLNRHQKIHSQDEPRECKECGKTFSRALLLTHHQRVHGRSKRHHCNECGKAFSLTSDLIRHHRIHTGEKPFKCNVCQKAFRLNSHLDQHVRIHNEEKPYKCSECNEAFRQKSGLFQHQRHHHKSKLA
UniProt Q60973, whole entry: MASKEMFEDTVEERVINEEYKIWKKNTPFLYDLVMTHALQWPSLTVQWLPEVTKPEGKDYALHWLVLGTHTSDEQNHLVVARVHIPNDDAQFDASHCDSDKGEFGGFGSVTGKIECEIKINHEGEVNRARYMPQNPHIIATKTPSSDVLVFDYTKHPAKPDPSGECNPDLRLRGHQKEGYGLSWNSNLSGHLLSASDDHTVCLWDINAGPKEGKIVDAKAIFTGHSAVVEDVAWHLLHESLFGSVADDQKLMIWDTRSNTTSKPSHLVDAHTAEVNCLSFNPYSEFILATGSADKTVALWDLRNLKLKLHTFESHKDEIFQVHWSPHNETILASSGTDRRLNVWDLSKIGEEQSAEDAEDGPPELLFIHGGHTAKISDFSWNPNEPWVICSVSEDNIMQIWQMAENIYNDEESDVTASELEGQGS
UniProt Q61292: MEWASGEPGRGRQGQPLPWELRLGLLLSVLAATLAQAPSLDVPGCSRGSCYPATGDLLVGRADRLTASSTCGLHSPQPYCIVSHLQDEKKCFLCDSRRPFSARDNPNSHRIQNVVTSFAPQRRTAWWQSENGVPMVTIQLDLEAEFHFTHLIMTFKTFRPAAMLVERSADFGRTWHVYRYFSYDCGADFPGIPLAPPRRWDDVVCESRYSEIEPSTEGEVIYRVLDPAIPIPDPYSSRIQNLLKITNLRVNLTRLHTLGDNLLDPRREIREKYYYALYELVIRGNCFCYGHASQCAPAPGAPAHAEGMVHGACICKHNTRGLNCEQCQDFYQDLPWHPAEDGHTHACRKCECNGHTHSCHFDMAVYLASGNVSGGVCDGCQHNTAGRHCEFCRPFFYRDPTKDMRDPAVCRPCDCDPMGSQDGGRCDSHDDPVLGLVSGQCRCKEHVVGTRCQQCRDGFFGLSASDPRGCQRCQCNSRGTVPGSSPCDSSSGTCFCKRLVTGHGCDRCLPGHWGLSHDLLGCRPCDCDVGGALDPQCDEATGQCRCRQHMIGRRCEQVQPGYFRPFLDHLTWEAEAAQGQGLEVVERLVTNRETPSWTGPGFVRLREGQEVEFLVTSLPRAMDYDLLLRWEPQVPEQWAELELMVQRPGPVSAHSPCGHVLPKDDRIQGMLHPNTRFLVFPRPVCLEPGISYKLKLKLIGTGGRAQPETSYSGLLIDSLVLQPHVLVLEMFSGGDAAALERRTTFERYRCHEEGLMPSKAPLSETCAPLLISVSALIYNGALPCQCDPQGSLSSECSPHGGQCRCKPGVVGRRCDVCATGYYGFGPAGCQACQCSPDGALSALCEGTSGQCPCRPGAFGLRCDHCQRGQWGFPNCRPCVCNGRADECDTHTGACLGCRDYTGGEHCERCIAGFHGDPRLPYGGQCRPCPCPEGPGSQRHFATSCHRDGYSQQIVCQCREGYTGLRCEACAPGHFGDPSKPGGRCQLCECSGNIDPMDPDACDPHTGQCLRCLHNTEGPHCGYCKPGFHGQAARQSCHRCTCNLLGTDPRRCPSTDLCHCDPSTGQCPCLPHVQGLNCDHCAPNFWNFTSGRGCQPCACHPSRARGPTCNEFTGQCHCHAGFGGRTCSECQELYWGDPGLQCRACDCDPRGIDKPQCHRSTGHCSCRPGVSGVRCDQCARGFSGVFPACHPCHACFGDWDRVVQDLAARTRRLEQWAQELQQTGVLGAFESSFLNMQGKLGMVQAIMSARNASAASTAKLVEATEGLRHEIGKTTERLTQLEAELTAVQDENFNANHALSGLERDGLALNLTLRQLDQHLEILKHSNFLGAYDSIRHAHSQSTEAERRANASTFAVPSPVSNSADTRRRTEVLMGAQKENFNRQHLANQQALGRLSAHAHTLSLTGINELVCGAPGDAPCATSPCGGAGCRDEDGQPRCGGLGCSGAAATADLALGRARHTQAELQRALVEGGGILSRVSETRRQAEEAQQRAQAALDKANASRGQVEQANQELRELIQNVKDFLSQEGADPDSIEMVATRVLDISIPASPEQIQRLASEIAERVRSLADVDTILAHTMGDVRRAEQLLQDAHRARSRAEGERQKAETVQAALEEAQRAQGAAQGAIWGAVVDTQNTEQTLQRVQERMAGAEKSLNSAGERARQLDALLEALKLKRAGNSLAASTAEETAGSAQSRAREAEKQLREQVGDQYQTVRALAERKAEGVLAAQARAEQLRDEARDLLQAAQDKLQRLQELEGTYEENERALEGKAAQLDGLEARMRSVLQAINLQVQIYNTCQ

The list shows a part of the results. Most entries show no effect beyond the scatter of the controls.

Compound in the experiment: CN[C@@H]1C[C@H]2O[C@@](C)([C@@H]1OC)n1c3ccccc3c3c4c(c5c6ccccc6n2c5c31)C(=O)NC4 [staurosporine]
Description: log2 fold change of tryptic peptide abundance, ligand vs vehicle (limited proteolysis) (log2 ratio); higher = more trypsin-susceptible (destabilized). The conditions noted are these: ligand concentration: 20 uM; sample: mouse liver crude lysate; replicate design: treated separately.
Take “UniProt Q61165 (peptide sequence: ITNYLTVPAHK, peptide start residue: 684)”: the log2 fold change amounted to 0.228.

In the case of “UniProt Q5RJ54 (peptide sequence: LVQNSGLIEHDR, peptide start residue: 229)”, the log2 fold change was -0.178.

“UniProt Q60973 (peptide sequence: YMPQNPHIIATK, peptide start residue: 131)”: the log2 fold change is -0.504.

Regarding “UniProt Q61292 (peptide sequence: EQVGDQYQTVR, peptide start residue: 1705)”, the log2 fold change was -0.503.
